{"source": "PubChem BioAssay AID1224826 (NIAID, 2016)", "screen": "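Knock-downs that raise or lower Tnf reporter signal after endotoxin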 (primary screen)", "cells": "RAW264.7 G9 macrophages from mouse bearing reporters for p65 (GFP) and the Tnf promoter (mCherry)", "reagents": "siRNA pool against mouse genes, 100 nM", "time to read-out": "16 h of LPS stimulation, after 2 days of siRNA transfection", "conditions": "bacterial lipopolysaccharide (Salmonella minnesota R595), 10 ng/ml", "read-out": "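Imaged Tnf reporter mCherry in nuclei, minus background, normalised per plate to the median and expressed as robust z-scores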", "scale": "Tnf reporter robust z-score: higher = stronger Tnf promoter reporter signal after LPS", "call rule": "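Called active when robust z-score is at most -1.3, matching the median of the Tlr4 knock-down control, or over 3; control wells and wells with under 50 cells never active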", "calls": "active = Tnf reporter clearly lowered or raised; inactive = no clear change in Tnf reporter", "note": "Shown is a random part of about 17,000 reagents tested. Of all reagents, about 1,110 (6.6%) got an active call. 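Active means lowered or raised reporter signal; replicate intensities are raw and not normalised per plate.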 Entries without a mark were called inactive. Not all columns of the deposit are shown."}
The opening 2 entries, ahead of the listing:
{"gene":"Snx31","Tnf reporter robust z-score":-0.97,"fewer than 50 cells in well":"enough cells in well"}
{"gene":"H2-Q6","Tnf reporter robust z-score":-0.72,"fewer than 50 cells in well":"enough cells in well"}

The list itself, from the start:
{"gene":"Snx31","Tnf reporter robust z-score":-0.97,"fewer than 50 cells in well":"enough cells in well"}
{"gene":"H2-Q6","Tnf reporter robust z-score":-0.72,"fewer than 50 cells in well":"enough cells in well"}
{"gene":"Cyp4f13","Tnf reporter robust z-score":0.16,"fewer than 50 cells in well":"enough cells in well"}
{"gene":"Trpm5","Tnf reporter robust z-score":0.11,"fewer than 50 cells in well":"enough cells in well"}
{"gene":"Cmtm2b","Tnf reporter robust z-score":0.57,"fewer than 50 cells in well":"enough cells in well"}
{"gene":"Pml","fewer than 50 cells in well":"fewer than 50 cells per well; well left out of calls"}
{"gene":"Rasal3","Tnf reporter robust z-score":0.17,"fewer than 50 cells in well":"enough cells in well"}
{"gene":"Perm1","fewer than 50 cells in well":"fewer than 50 cells per well; well left out of calls"}
{"gene":"Zfp934","Tnf reporter robust z-score":1.06,"fewer than 50 cells in well":"enough cells in well"}
{"gene":"Tfap2b","Tnf reporter robust z-score":-0.8,"fewer than 50 cells in well":"enough cells in well"}
{"gene":"Cgref1","Tnf reporter robust z-score":0.98,"fewer than 50 cells in well":"enough cells in well"}
{"gene":"Scg3","Tnf reporter robust z-score":-0.82,"fewer than 50 cells in well":"enough cells in well"}
{"gene":"Stx17","Tnf reporter robust z-score":-0.87,"fewer than 50 cells in well":"enough cells in well"}
{"gene":"Rrp7a","fewer than 50 cells in well":"fewer than 50 cells per well; well left out of calls"}
{"gene":"Hepacam2","Tnf reporter robust z-score":0,"fewer than 50 cells in well":"enough cells in well"}
{"gene":"Tsfm","fewer than 50 cells in well":"fewer than 50 cells per well; well left out of calls"}
{"gene":"Nfxl1","Tnf reporter robust z-score":1.32,"fewer than 50 cells in well":"enough cells in well"}
{"gene":"C1ql2","Tnf reporter robust z-score":0.92,"fewer than 50 cells in well":"enough cells in well"}
{"gene":"Mbd4","Tnf reporter robust z-score":0.13,"fewer than 50 cells in well":"enough cells in well"}
{"gene":"Tlr7","Tnf reporter robust z-score":-0.75,"fewer than 50 cells in well":"enough cells in well"}
{"gene":"Rgs11","Tnf reporter robust z-score":0.86,"fewer than 50 cells in well":"enough cells in well"}
